One substance from patent US20140079716A1 can be followed below.

The chains behind the UniProt entries cited, without tags or fusion partners. Residues count along the entry.
UniProt P36941, residues 31-227: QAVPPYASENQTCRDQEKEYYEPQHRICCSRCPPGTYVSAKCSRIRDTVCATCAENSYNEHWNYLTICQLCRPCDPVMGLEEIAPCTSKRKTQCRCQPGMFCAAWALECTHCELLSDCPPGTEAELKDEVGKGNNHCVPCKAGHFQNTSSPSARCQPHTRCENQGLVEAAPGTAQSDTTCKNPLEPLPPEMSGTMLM

Results are given in words; binding and its absence hold for the method and conditions named. Some results given as binding are weak or reduced against the parent protein; the word gives no strength.

The target of experiment [1] is T1, LTα1β2 on the surface of PMA-treated II-23 cells (UniProt P01374).
T1 sequence 1: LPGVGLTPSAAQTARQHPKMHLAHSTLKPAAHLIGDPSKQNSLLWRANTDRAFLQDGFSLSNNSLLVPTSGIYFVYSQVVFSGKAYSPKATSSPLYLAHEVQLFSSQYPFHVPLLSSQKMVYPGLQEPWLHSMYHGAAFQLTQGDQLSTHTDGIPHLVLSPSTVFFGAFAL
T1 sequence 2: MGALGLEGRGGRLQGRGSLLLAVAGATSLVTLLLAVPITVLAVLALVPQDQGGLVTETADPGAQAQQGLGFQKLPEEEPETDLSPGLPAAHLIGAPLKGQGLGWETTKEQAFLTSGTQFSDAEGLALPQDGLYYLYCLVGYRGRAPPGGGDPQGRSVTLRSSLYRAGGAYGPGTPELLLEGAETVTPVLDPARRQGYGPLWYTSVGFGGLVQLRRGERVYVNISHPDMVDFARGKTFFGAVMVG
The experiment can be described thus: competition FACS (II-23 assay): PMA-treated II-23 cells, varied competitor, then biotin-LTβR-Ig at 1 ug/ml, streptavidin-PE; MFI of bound LTβR-Ig.

The target in experiment [2] is T1, LTα1β2 on the surface of PMA-treated II-23 cells. Description: competition FACS (II-23 assay, as in FIG. 4): LT-expressing cells, varied competitor, labelled LTβR-Ig; MFI of bound LTβR-Ig.

Consider “LTβR-Ig (from UniProt P36941 31-227) (Fc fusion)”, for which the binding result in experiment [1] and in experiment [2] was “binds” in each case.
